Measurements taken from publication PMC10861483.
No constants are given. Whether binding was seen depends on the method and setting. In cells and extracts the contact can be indirect. Binding can be weak; no strength is given. Sequences can lack the tags named with a protein.

Protein sequences, listed by entry. Tags and fused reporters are not part of them. Lines headed by an entry give the natural chain unless they say otherwise; changes in a name come on top.
UniProt P00367: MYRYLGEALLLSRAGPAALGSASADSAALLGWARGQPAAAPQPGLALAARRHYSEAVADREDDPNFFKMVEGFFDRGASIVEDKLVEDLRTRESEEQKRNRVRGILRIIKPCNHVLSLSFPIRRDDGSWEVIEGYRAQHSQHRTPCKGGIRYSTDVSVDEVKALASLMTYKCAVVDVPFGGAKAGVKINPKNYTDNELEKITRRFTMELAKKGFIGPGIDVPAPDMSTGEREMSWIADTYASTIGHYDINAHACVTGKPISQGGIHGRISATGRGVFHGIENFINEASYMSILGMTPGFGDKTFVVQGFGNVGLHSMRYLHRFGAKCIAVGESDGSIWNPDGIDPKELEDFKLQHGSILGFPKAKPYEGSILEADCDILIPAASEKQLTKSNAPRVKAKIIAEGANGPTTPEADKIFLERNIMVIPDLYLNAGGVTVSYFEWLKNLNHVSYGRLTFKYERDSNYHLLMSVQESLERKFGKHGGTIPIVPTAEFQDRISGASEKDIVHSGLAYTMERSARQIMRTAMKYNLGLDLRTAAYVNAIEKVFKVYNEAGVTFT

Tests used:
Flag-tagged CPS1 (human) = molecular target: T1, Flag-tagged CPS1 (human) (UniProt P31327); assay: co-IP; Flag-tagged CPS1 or GDH co-expressed in HEK293T cells with HA-tagged GDH or CPS1; Flag bead- or HA bead-purified proteins analysed by western blotting
T1 sequence: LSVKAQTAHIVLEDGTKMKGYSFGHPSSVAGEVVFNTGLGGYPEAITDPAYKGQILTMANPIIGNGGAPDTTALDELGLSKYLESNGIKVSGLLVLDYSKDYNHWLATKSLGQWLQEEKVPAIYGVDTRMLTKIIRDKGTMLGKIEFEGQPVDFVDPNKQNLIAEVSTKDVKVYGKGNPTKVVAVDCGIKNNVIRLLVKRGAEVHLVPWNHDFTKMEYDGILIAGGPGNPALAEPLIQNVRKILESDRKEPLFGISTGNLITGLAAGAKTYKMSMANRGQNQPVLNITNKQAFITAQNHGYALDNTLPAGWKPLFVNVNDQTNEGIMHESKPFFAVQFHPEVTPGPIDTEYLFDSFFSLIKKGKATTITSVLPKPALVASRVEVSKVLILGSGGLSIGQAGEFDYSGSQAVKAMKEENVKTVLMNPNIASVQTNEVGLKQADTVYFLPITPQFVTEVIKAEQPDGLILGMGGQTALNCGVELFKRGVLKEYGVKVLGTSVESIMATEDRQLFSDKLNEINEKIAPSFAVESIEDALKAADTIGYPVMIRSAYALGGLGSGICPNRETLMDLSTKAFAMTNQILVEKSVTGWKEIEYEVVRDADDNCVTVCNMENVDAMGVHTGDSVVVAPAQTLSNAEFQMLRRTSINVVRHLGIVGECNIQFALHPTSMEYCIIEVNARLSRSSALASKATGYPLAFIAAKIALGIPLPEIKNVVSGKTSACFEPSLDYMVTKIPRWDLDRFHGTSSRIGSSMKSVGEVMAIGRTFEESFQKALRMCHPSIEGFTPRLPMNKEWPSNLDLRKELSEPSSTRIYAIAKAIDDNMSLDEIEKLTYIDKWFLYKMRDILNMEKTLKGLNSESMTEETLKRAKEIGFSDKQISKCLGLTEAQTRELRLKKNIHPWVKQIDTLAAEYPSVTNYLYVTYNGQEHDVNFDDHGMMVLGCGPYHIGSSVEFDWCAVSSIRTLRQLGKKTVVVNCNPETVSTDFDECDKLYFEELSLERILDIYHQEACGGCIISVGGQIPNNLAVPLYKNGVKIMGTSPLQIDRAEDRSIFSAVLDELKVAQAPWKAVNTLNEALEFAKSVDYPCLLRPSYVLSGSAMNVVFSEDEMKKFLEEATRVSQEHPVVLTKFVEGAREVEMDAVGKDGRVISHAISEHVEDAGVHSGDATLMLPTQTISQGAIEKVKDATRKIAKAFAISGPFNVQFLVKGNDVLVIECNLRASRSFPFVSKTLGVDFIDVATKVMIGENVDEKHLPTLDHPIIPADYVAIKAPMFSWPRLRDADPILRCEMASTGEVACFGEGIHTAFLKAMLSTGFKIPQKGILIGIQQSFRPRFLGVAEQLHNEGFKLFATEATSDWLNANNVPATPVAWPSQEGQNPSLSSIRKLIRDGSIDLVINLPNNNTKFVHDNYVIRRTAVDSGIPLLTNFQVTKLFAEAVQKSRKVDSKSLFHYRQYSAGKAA

Flag-tagged GDH (human) = Flag-tagged GDH (human) (UniProt P00367); assay: as above
[1] = molecular target: GDH co-expressed with SIRT4 (tag not told) (human) (UniProt P00367); assay: co-IP; GDH and SIRT4 simultaneously expressed in HEK293T cells; co-immunoprecipitation

With “HA-tagged GDH (from UniProt P00367) (enzyme)” the binding (Flag-tagged CPS1 (human)) was “binds”.

B1: HA-tagged CPS1 (enzyme, UniProt P31327 39-1500)
chain: LSVKAQTAHIVLEDGTKMKGYSFGHPSSVAGEVVFNTGLGGYPEAITDPAYKGQILTMANPIIGNGGAPDTTALDELGLSKYLESNGIKVSGLLVLDYSKDYNHWLATKSLGQWLQEEKVPAIYGVDTRMLTKIIRDKGTMLGKIEFEGQPVDFVDPNKQNLIAEVSTKDVKVYGKGNPTKVVAVDCGIKNNVIRLLVKRGAEVHLVPWNHDFTKMEYDGILIAGGPGNPALAEPLIQNVRKILESDRKEPLFGISTGNLITGLAAGAKTYKMSMANRGQNQPVLNITNKQAFITAQNHGYALDNTLPAGWKPLFVNVNDQTNEGIMHESKPFFAVQFHPEVTPGPIDTEYLFDSFFSLIKKGKATTITSVLPKPALVASRVEVSKVLILGSGGLSIGQAGEFDYSGSQAVKAMKEENVKTVLMNPNIASVQTNEVGLKQADTVYFLPITPQFVTEVIKAEQPDGLILGMGGQTALNCGVELFKRGVLKEYGVKVLGTSVESIMATEDRQLFSDKLNEINEKIAPSFAVESIEDALKAADTIGYPVMIRSAYALGGLGSGICPNRETLMDLSTKAFAMTNQILVEKSVTGWKEIEYEVVRDADDNCVTVCNMENVDAMGVHTGDSVVVAPAQTLSNAEFQMLRRTSINVVRHLGIVGECNIQFALHPTSMEYCIIEVNARLSRSSALASKATGYPLAFIAAKIALGIPLPEIKNVVSGKTSACFEPSLDYMVTKIPRWDLDRFHGTSSRIGSSMKSVGEVMAIGRTFEESFQKALRMCHPSIEGFTPRLPMNKEWPSNLDLRKELSEPSSTRIYAIAKAIDDNMSLDEIEKLTYIDKWFLYKMRDILNMEKTLKGLNSESMTEETLKRAKEIGFSDKQISKCLGLTEAQTRELRLKKNIHPWVKQIDTLAAEYPSVTNYLYVTYNGQEHDVNFDDHGMMVLGCGPYHIGSSVEFDWCAVSSIRTLRQLGKKTVVVNCNPETVSTDFDECDKLYFEELSLERILDIYHQEACGGCIISVGGQIPNNLAVPLYKNGVKIMGTSPLQIDRAEDRSIFSAVLDELKVAQAPWKAVNTLNEALEFAKSVDYPCLLRPSYVLSGSAMNVVFSEDEMKKFLEEATRVSQEHPVVLTKFVEGAREVEMDAVGKDGRVISHAISEHVEDAGVHSGDATLMLPTQTISQGAIEKVKDATRKIAKAFAISGPFNVQFLVKGNDVLVIECNLRASRSFPFVSKTLGVDFIDVATKVMIGENVDEKHLPTLDHPIIPADYVAIKAPMFSWPRLRDADPILRCEMASTGEVACFGEGIHTAFLKAMLSTGFKIPQKGILIGIQQSFRPRFLGVAEQLHNEGFKLFATEATSDWLNANNVPATPVAWPSQEGQNPSLSSIRKLIRDGSIDLVINLPNNNTKFVHDNYVIRRTAVDSGIPLLTNFQVTKLFAEAVQKSRKVDSKSLFHYRQYSAGKAA
With B1 the binding (Flag-tagged GDH (human)) was “binds”.

B2: SIRT4 co-expressed with GDH (tag not told) (enzyme, UniProt Q9Y6E7 29-314)
chain: IGLFVPASPPLDPEKVKELQRFITLSKRLLVMTGAGISTESGIPDYRSEKVGLYARTDRRPIQHGDFVRSAPIRQRYWARNFVGWPQFSSHQPNPAHWALSTWEKLGKLYWLVTQNVDALHTKAGSRRLTELHGCMDRVLCLDCGEQTPRGVLQERFQVLNPTWSAEAHGLAPDGDVFLSEEQVRSFQVPTCVQCGGHLKPDVVFFGDTVNPDKVDFVHKRVKEADSLLVVGSSLQVYSGYRFILTAWEKKLPIAILNIGPTRSDDLACLKLNSRCGELLPLIDPC
With B2 the binding [1] was “binds”.
